For six molecules, binding results are on record in paper PMC6468293, “Double autoinhibition mechanism of signal transduction ATPases with numerous domains (STAND) with a tetratricopeptide repeat sensor” (Nucleic Acids Research, 2019).

Results are given in words; binding and its absence hold for the method and conditions named. Tags and fused reporters may be left off the sequences shown.

The target in test [1] is His6-tagged MalT^M96C (E. coli) (UniProt P06993). Put plainly: SEC; analytical Superdex 200 PC3.2/30, room temperature; reducing conditions; without the inducer maltotriose (Supplementary Figure S9); both purified. (SEC sorts molecules by how far they enter the pores of the column.)
Test [2] deals with His6-tagged MalT^R171E (E. coli) (UniProt P06993). Put plainly: SEC; analytical Superdex 200 (column with a shifted calibration curve), same buffer with 0.1 mM ADP, no maltotriose; R171E variants at the indicated concentrations up to 60 μM; wt MalT at 10 μM as monomer reference; both purified.
For test [3], the target named is His6-tagged MalT^M96C,H562C (E. coli) (UniProt P06993). Put plainly: SEC; analytical Superdex 200 PC3.2/30, room temperature; reducing conditions; without the inducer maltotriose (Supplementary Figure S9); both purified.
For test [4], the target named is His6-tagged MalT^M96T,R171E (E. coli) (UniProt P06993). As to the kind of experiment: SEC; analytical Superdex 200 (column with a shifted calibration curve), same buffer with 0.1 mM ADP, no maltotriose; R171E variants at the indicated concentrations up to 60 μM; wt MalT at 10 μM as monomer reference; both purified.
Test [5] concerns the target His6-tagged MalT^H562C (E. coli) (UniProt P06993). Put plainly: SEC; analytical Superdex 200 PC3.2/30, room temperature; reducing conditions; without the inducer maltotriose (Supplementary Figure S9); both purified.
Test [6] deals with His6-tagged MalT^M96T (E. coli) (UniProt P06993). Put plainly: condition: only at low concentration (with ADP, no maltotriose); SEC; analytical Superdex 200, room temperature; Tris-HCl 50 mM pH 8.0, 10% sucrose, 0.033 M K3 citrate, 10 mM Mg acetate, 0.1 mM EDTA, 1 mM DTT, 0.1 mM ADP; no maltotriose; low protein concentration (2.5 μM); both purified.

B1: His6-tagged MalT^M96C (natural protein, E. coli, UniProt P06993 1-901, looked up)
chain: MLIPSKLSRPVRLDHTVVRERLLAKLSGANNFRLALITSPAGYGKTTLISQWAAGKNDIGWYSLDEGDNQQERFASYLIAAVQQATNGHCAICETCAQKRQYASLTSLFAQLFIELAEWHSPLYLVIDDYHLITNPVIHESMRFFIRHQPENLTLVVLSRNLPQLGIANLRVRDQLLEIGSQQLAFTHQEAKQFFDCRLSSPIEAAESSRICDDVSGWATALQLIALSARQNTHSAHKSARRLAGINASHLSDYLVDEVLDNVDLATRHFLLKSAILRSMNDALITRVTGEENGQMRLEEIERQGLFLQRMDDTGEWFCYHPLFGNFLRQRCQWELAAELPEIHRAAAESWMAQGFPSEAIHHALAAGDALMLRDILLNHAWSLFNHSELSLLEESLKALPWDSLLENPQLVLLQAWLMQSQHRYGEVNTLLARAEHEIKDIREDTMHAEFNALRAQVAINDGNPDEAERLAKLALEELPPGWFYSRIVATSVLGEVLHCKGELTRSLALMQQTEQMARQHDVWHYALWSLIQQSEILFAQGFLQTAWETQEKAFQLINEQHLEQLPMHEFLVRIRAQLLWAWARLDEAEASARSGIEVLSSYQPQQQLQCLAMLIQCSLARGDLDNARSQLNRLENLLGNGKYHSDWISNANKVRVIYWQMTGDKAAAANWLRHTAKPEFANNHFLQGQWRNIARAQILLGEFEPAEIVLEELNENARSLRLMSDLNRNLLLLNQLYWQAGRKSDAQRVLLDALKLANRTGFISHFVIEGEAMAQQLRQLIQLNTLPELEQHRAQRILREINQHHRHKFAHFDENFVERLLNHPEVPELIRTSPLTQREWQVLGLIYSGYSNEQIAGELEVAATTIKTHIRNLYQKLGVAHRQDAVQHAQQLLKMMGYGV
notes: MalT, E. coli, His-tagged, pOM206 derivative; source: E. coli pop8012 (a BL21 ΔmalT strain) with a pOM206 derivative, purified (nickel-agarose chromatography, Superdex 200)
For the molecule B1, the binding result in test [1] was “no binding (condition: in the absence of maltotriose)”.

B2: His6-tagged MalT^R171E (protein, UniProt P06993 1-901)
chain: MLIPSKLSRPVRLDHTVVRERLLAKLSGANNFRLALITSPAGYGKTTLISQWAAGKNDIGWYSLDEGDNQQERFASYLIAAVQQATNGHCAICETMAQKRQYASLTSLFAQLFIELAEWHSPLYLVIDDYHLITNPVIHESMRFFIRHQPENLTLVVLSRNLPQLGIANLEVRDQLLEIGSQQLAFTHQEAKQFFDCRLSSPIEAAESSRICDDVSGWATALQLIALSARQNTHSAHKSARRLAGINASHLSDYLVDEVLDNVDLATRHFLLKSAILRSMNDALITRVTGEENGQMRLEEIERQGLFLQRMDDTGEWFCYHPLFGNFLRQRCQWELAAELPEIHRAAAESWMAQGFPSEAIHHALAAGDALMLRDILLNHAWSLFNHSELSLLEESLKALPWDSLLENPQLVLLQAWLMQSQHRYGEVNTLLARAEHEIKDIREDTMHAEFNALRAQVAINDGNPDEAERLAKLALEELPPGWFYSRIVATSVLGEVLHCKGELTRSLALMQQTEQMARQHDVWHYALWSLIQQSEILFAQGFLQTAWETQEKAFQLINEQHLEQLPMHEFLVRIRAQLLWAWARLDEAEASARSGIEVLSSYQPQQQLQCLAMLIQCSLARGDLDNARSQLNRLENLLGNGKYHSDWISNANKVRVIYWQMTGDKAAAANWLRHTAKPEFANNHFLQGQWRNIARAQILLGEFEPAEIVLEELNENARSLRLMSDLNRNLLLLNQLYWQAGRKSDAQRVLLDALKLANRTGFISHFVIEGEAMAQQLRQLIQLNTLPELEQHRAQRILREINQHHRHKFAHFDENFVERLLNHPEVPELIRTSPLTQREWQVLGLIYSGYSNEQIAGELEVAATTIKTHIRNLYQKLGVAHRQDAVQHAQQLLKMMGYGV
As for B2, in test [2], the binding entry is “no binding (tested: 60 μM)”.

B3: His6-tagged MalT^M96C,H562C (natural protein, E. coli, UniProt P06993 1-901, looked up)
chain: MLIPSKLSRPVRLDHTVVRERLLAKLSGANNFRLALITSPAGYGKTTLISQWAAGKNDIGWYSLDEGDNQQERFASYLIAAVQQATNGHCAICETCAQKRQYASLTSLFAQLFIELAEWHSPLYLVIDDYHLITNPVIHESMRFFIRHQPENLTLVVLSRNLPQLGIANLRVRDQLLEIGSQQLAFTHQEAKQFFDCRLSSPIEAAESSRICDDVSGWATALQLIALSARQNTHSAHKSARRLAGINASHLSDYLVDEVLDNVDLATRHFLLKSAILRSMNDALITRVTGEENGQMRLEEIERQGLFLQRMDDTGEWFCYHPLFGNFLRQRCQWELAAELPEIHRAAAESWMAQGFPSEAIHHALAAGDALMLRDILLNHAWSLFNHSELSLLEESLKALPWDSLLENPQLVLLQAWLMQSQHRYGEVNTLLARAEHEIKDIREDTMHAEFNALRAQVAINDGNPDEAERLAKLALEELPPGWFYSRIVATSVLGEVLHCKGELTRSLALMQQTEQMARQHDVWHYALWSLIQQSEILFAQGFLQTAWETQEKAFQLINEQCLEQLPMHEFLVRIRAQLLWAWARLDEAEASARSGIEVLSSYQPQQQLQCLAMLIQCSLARGDLDNARSQLNRLENLLGNGKYHSDWISNANKVRVIYWQMTGDKAAAANWLRHTAKPEFANNHFLQGQWRNIARAQILLGEFEPAEIVLEELNENARSLRLMSDLNRNLLLLNQLYWQAGRKSDAQRVLLDALKLANRTGFISHFVIEGEAMAQQLRQLIQLNTLPELEQHRAQRILREINQHHRHKFAHFDENFVERLLNHPEVPELIRTSPLTQREWQVLGLIYSGYSNEQIAGELEVAATTIKTHIRNLYQKLGVAHRQDAVQHAQQLLKMMGYGV
notes: as for B1
For B3, the binding result in test [3] is “no binding (condition: in the absence of maltotriose)”.

B4: His6-tagged MalT^M96T,R171E (protein, UniProt P06993 1-901)
chain: MLIPSKLSRPVRLDHTVVRERLLAKLSGANNFRLALITSPAGYGKTTLISQWAAGKNDIGWYSLDEGDNQQERFASYLIAAVQQATNGHCAICETTAQKRQYASLTSLFAQLFIELAEWHSPLYLVIDDYHLITNPVIHESMRFFIRHQPENLTLVVLSRNLPQLGIANLEVRDQLLEIGSQQLAFTHQEAKQFFDCRLSSPIEAAESSRICDDVSGWATALQLIALSARQNTHSAHKSARRLAGINASHLSDYLVDEVLDNVDLATRHFLLKSAILRSMNDALITRVTGEENGQMRLEEIERQGLFLQRMDDTGEWFCYHPLFGNFLRQRCQWELAAELPEIHRAAAESWMAQGFPSEAIHHALAAGDALMLRDILLNHAWSLFNHSELSLLEESLKALPWDSLLENPQLVLLQAWLMQSQHRYGEVNTLLARAEHEIKDIREDTMHAEFNALRAQVAINDGNPDEAERLAKLALEELPPGWFYSRIVATSVLGEVLHCKGELTRSLALMQQTEQMARQHDVWHYALWSLIQQSEILFAQGFLQTAWETQEKAFQLINEQHLEQLPMHEFLVRIRAQLLWAWARLDEAEASARSGIEVLSSYQPQQQLQCLAMLIQCSLARGDLDNARSQLNRLENLLGNGKYHSDWISNANKVRVIYWQMTGDKAAAANWLRHTAKPEFANNHFLQGQWRNIARAQILLGEFEPAEIVLEELNENARSLRLMSDLNRNLLLLNQLYWQAGRKSDAQRVLLDALKLANRTGFISHFVIEGEAMAQQLRQLIQLNTLPELEQHRAQRILREINQHHRHKFAHFDENFVERLLNHPEVPELIRTSPLTQREWQVLGLIYSGYSNEQIAGELEVAATTIKTHIRNLYQKLGVAHRQDAVQHAQQLLKMMGYGV
B4: the binding entry in test [4] was “no binding (tested: 60 μM)”.

B5: His6-tagged MalT^H562C (natural protein, E. coli, UniProt P06993 1-901, looked up)
chain: MLIPSKLSRPVRLDHTVVRERLLAKLSGANNFRLALITSPAGYGKTTLISQWAAGKNDIGWYSLDEGDNQQERFASYLIAAVQQATNGHCAICETMAQKRQYASLTSLFAQLFIELAEWHSPLYLVIDDYHLITNPVIHESMRFFIRHQPENLTLVVLSRNLPQLGIANLRVRDQLLEIGSQQLAFTHQEAKQFFDCRLSSPIEAAESSRICDDVSGWATALQLIALSARQNTHSAHKSARRLAGINASHLSDYLVDEVLDNVDLATRHFLLKSAILRSMNDALITRVTGEENGQMRLEEIERQGLFLQRMDDTGEWFCYHPLFGNFLRQRCQWELAAELPEIHRAAAESWMAQGFPSEAIHHALAAGDALMLRDILLNHAWSLFNHSELSLLEESLKALPWDSLLENPQLVLLQAWLMQSQHRYGEVNTLLARAEHEIKDIREDTMHAEFNALRAQVAINDGNPDEAERLAKLALEELPPGWFYSRIVATSVLGEVLHCKGELTRSLALMQQTEQMARQHDVWHYALWSLIQQSEILFAQGFLQTAWETQEKAFQLINEQCLEQLPMHEFLVRIRAQLLWAWARLDEAEASARSGIEVLSSYQPQQQLQCLAMLIQCSLARGDLDNARSQLNRLENLLGNGKYHSDWISNANKVRVIYWQMTGDKAAAANWLRHTAKPEFANNHFLQGQWRNIARAQILLGEFEPAEIVLEELNENARSLRLMSDLNRNLLLLNQLYWQAGRKSDAQRVLLDALKLANRTGFISHFVIEGEAMAQQLRQLIQLNTLPELEQHRAQRILREINQHHRHKFAHFDENFVERLLNHPEVPELIRTSPLTQREWQVLGLIYSGYSNEQIAGELEVAATTIKTHIRNLYQKLGVAHRQDAVQHAQQLLKMMGYGV
notes: as for B1
On to B5, for which, in test [5], the binding result is “no binding (condition: in the absence of maltotriose)”.

B6: His6-tagged MalT^M96T (natural protein, E. coli, UniProt P06993 1-901, looked up)
chain: MLIPSKLSRPVRLDHTVVRERLLAKLSGANNFRLALITSPAGYGKTTLISQWAAGKNDIGWYSLDEGDNQQERFASYLIAAVQQATNGHCAICETTAQKRQYASLTSLFAQLFIELAEWHSPLYLVIDDYHLITNPVIHESMRFFIRHQPENLTLVVLSRNLPQLGIANLRVRDQLLEIGSQQLAFTHQEAKQFFDCRLSSPIEAAESSRICDDVSGWATALQLIALSARQNTHSAHKSARRLAGINASHLSDYLVDEVLDNVDLATRHFLLKSAILRSMNDALITRVTGEENGQMRLEEIERQGLFLQRMDDTGEWFCYHPLFGNFLRQRCQWELAAELPEIHRAAAESWMAQGFPSEAIHHALAAGDALMLRDILLNHAWSLFNHSELSLLEESLKALPWDSLLENPQLVLLQAWLMQSQHRYGEVNTLLARAEHEIKDIREDTMHAEFNALRAQVAINDGNPDEAERLAKLALEELPPGWFYSRIVATSVLGEVLHCKGELTRSLALMQQTEQMARQHDVWHYALWSLIQQSEILFAQGFLQTAWETQEKAFQLINEQHLEQLPMHEFLVRIRAQLLWAWARLDEAEASARSGIEVLSSYQPQQQLQCLAMLIQCSLARGDLDNARSQLNRLENLLGNGKYHSDWISNANKVRVIYWQMTGDKAAAANWLRHTAKPEFANNHFLQGQWRNIARAQILLGEFEPAEIVLEELNENARSLRLMSDLNRNLLLLNQLYWQAGRKSDAQRVLLDALKLANRTGFISHFVIEGEAMAQQLRQLIQLNTLPELEQHRAQRILREINQHHRHKFAHFDENFVERLLNHPEVPELIRTSPLTQREWQVLGLIYSGYSNEQIAGELEVAATTIKTHIRNLYQKLGVAHRQDAVQHAQQLLKMMGYGV
notes: MalT, E. coli, His-tagged, pOM206 derivative; About 20% aggregated after purification without nucleotide; concentration was corrected for this; also called M96T variant
In the case of B6, the binding entry in test [6] is “no binding”.
